Measurements reported in PubChem BioAssay AID1259254 (NCATS, 2017).

- Screen: 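Gene knock-downs that lead to re-replication, shown by excess G2 DNA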 (primary screen)
- System: human HCT116 colorectal cancer cells
- Reagent: single siRNA against human genes
- Timing: 3 days
- Measurement: 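Nuclei stained with Hoechst and imaged; cell-cycle phase assigned by DNA content; G2 share scaled per plate, non-targeting siRNA 0%, GMNN siRNA 100%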
- Direction: G2 robust z-score and G2 cells, % of GMNN control: higher = more G2 cells, more excess DNA replication; raw share of cells in G2: higher = larger share of cells with G2 DNA content
- Call rule: 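Active siRNAs have a G2 robust z of 5 or more median absolute deviations over the median, which in these data means about 38% or higher of GMNN control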
The whole screen tested about 59,000 reagents; this is a part drawn at random. About 1,550 of all reagents (2.6%) count as active. 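G2 share is only a proxy for re-replication; each gene was hit by three separate siRNAs, and active genes were retested.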 Raw values are not corrected between plates. Unmarked entries are inactive. Not stated in the record: the amount of reagent.

gene knocked down	PubChem SID	G2 robust z-score	G2 cells, % of GMNN control	raw share of cells in G2 (%)
PARD6B (GeneID 84612)	SID160752433	0.724	8.06	7.77
PARD6B (GeneID 84612)	SID160752434	-0.406	0.109	5.48
PARD6B (GeneID 84612)	SID160752435	8.01 (active)	59.3	25.7
SAXO4 (GeneID 220004)	SID160732692	-0.0826	2.39	3.96
SAXO4 (GeneID 220004)	SID160761470	-0.344	0.546	3.78
SAXO4 (GeneID 220004)	SID160761471	1.04	10.3	6.66
KMT5B (GeneID 51111)	SID160740088	-0.905	-3.4	2.56
KMT5B (GeneID 51111)	SID160740089	-0.648	-1.59	3.95
KMT5B (GeneID 51111)	SID160740090	0.458	6.19	5.2
TSPAN31 (GeneID 6302)	SID160716345	0.321	5.22	6.77
TSPAN31 (GeneID 6302)	SID160716346	-0.769	-2.45	3.75
TSPAN31 (GeneID 6302)	SID160716347	0.78	8.46	6.96
CAPZA2 (GeneID 830)	SID160736411	-0.471	-0.348	4.6
CAPZA2 (GeneID 830)	SID160736422	-0.767	-2.43	4.21
CAPZA2 (GeneID 830)	SID160736433	-0.63	-1.47	3.44
KHDRBS2 (GeneID 202559)	SID160730759	6.7 (active)	50.1	23
KHDRBS2 (GeneID 202559)	SID160761076	1.32	12.2	11.8
KHDRBS2 (GeneID 202559)	SID160761077	-0.921	-3.51	3.23
FBXO7 (GeneID 25793)	SID160736982	-0.894	-3.32	3.16
FBXO7 (GeneID 25793)	SID160736983	1.64	14.5	10.2
FBXO7 (GeneID 25793)	SID160736984	1.91	16.4	9.02
ZNF181 (GeneID 339318)	SID160764196	0.732	8.12	5.88
ZNF181 (GeneID 339318)	SID160764199	0.34	5.36	5.03
ZNF181 (GeneID 339318)	SID160764200	2.59	21.2	11
GAP43 (GeneID 2596)	SID160769229	0.241	4.66	7.49
GAP43 (GeneID 2596)	SID160769241	0.268	4.85	5.86
GAP43 (GeneID 2596)	SID160769251	0.239	4.65	5.34
RRP36 (GeneID 88745)	SID160753394	-0.809	-2.73	2.93
RRP36 (GeneID 88745)	SID160753395	2.01	17.1	8.36
RRP36 (GeneID 88745)	SID160753396	-0.674	-1.77	2.36
ACSM1 (GeneID 116285)	SID160755390	0.229	4.58	7.8
ACSM1 (GeneID 116285)	SID160755391	-0.559	-0.969	4.55
ACSM1 (GeneID 116285)	SID160755392	-0.333	0.625	4.72
ELP1 (GeneID 8518)	SID160720220	-1.22	-5.61	2.7
ELP1 (GeneID 8518)	SID160720222	-0.728	-2.15	4.51
ELP1 (GeneID 8518)	SID160720223	-0.945	-3.68	2.86
BPIFB1 (GeneID 92747)	SID160754363	-0.619	-1.39	3.49
BPIFB1 (GeneID 92747)	SID160754364	-0.217	1.44	3.45
BPIFB1 (GeneID 92747)	SID160754365	0.743	8.2	5.52
CYB5A (GeneID 1528)	SID160730660	3.63	28.5	15.4
CYB5A (GeneID 1528)	SID160750990	0.833	8.83	7.14
CYB5A (GeneID 1528)	SID160751001	-0.606	-1.3	4.5
CTNNAL1 (GeneID 8727)	SID160720684	2.88	23.2	13
CTNNAL1 (GeneID 8727)	SID160720685	-1.2	-5.49	3.34
CTNNAL1 (GeneID 8727)	SID160720686	0.681	7.76	8.06

Entries listed so far with an active call, once more:
gene knocked down	PubChem SID	G2 robust z-score	G2 cells, % of GMNN control	raw share of cells in G2 (%)
PARD6B (GeneID 84612)	SID160752435	8.01 (active)	59.3	25.7
KHDRBS2 (GeneID 202559)	SID160730759	6.7 (active)	50.1	23

The listing continues.
gene knocked down	PubChem SID	G2 robust z-score	G2 cells, % of GMNN control	raw share of cells in G2 (%)
SPATA20 (GeneID 64847)	SID160748060	0.0435	3.27	5.41
SPATA20 (GeneID 64847)	SID160748061	0.661	7.62	8.8
SPATA20 (GeneID 64847)	SID160748062	2.33	19.3	11.2
FKBP9 (GeneID 11328)	SID160730635	1.75	15.3	12.5
FKBP9 (GeneID 11328)	SID160730644	1.33	12.3	8.28
FKBP9 (GeneID 11328)	SID160730655	5.4 (active)	41	17.9
TPM4 (GeneID 7171)	SID160718285	-0.865	-3.12	3.45
TPM4 (GeneID 7171)	SID160718286	1.65	14.6	9.68
TPM4 (GeneID 7171)	SID160718287	-0.226	1.38	6.18
FCER1G (GeneID 2207)	SID160730787	-0.441	-0.136	5.19
FCER1G (GeneID 2207)	SID160764325	-1.38	-6.76	1.25
FCER1G (GeneID 2207)	SID160764346	-0.56	-0.971	4.89
SLC25A11 (GeneID 8402)	SID160719963	0.0134	3.06	6.34
SLC25A11 (GeneID 8402)	SID160719964	0.06	3.39	6.08
SLC25A11 (GeneID 8402)	SID160719965	0.369	5.56	6.7
ZNF507 (GeneID 22847)	SID160731985	0.845	8.91	6.49
ZNF507 (GeneID 22847)	SID160731993	-0.323	0.691	6.3
ZNF507 (GeneID 22847)	SID160732001	-0.143	1.96	4.16
TRPM7 (GeneID 54822)	SID160742242	-1.49	-7.51	2.55
TRPM7 (GeneID 54822)	SID160742243	8.38 (active)	61.9	25.7
TRPM7 (GeneID 54822)	SID160742244	-1.05	-4.44	2.64
NREP (GeneID 9315)	SID160721921	0.89	9.23	9.5
NREP (GeneID 9315)	SID160721922	0.952	9.67	7.98
NREP (GeneID 9315)	SID160735208	-0.706	-2	2.68
MUL1 (GeneID 79594)	SID160748958	-0.446	-0.17	4.51
MUL1 (GeneID 79594)	SID160748959	-0.954	-3.74	2.93
MUL1 (GeneID 79594)	SID160748961	0.165	4.13	3.79
PPP1R12C (GeneID 54776)	SID160742143	2.25	18.8	10.9
PPP1R12C (GeneID 54776)	SID160742144	0.954	9.68	7.22
PPP1R12C (GeneID 54776)	SID160742145	-0.916	-3.47	2.45
NPY5R (GeneID 4889)	SID160778225	2.89	23.3	14.2
NPY5R (GeneID 4889)	SID160778226	0.0873	3.58	5.77
NPY5R (GeneID 4889)	SID160778227	-0.404	0.125	3.31
SH3D19 (GeneID 152503)	SID160759241	-0.436	-0.101	3.79
SH3D19 (GeneID 152503)	SID160759242	1.46	13.2	6.99
SH3D19 (GeneID 152503)	SID160759243	-0.645	-1.57	2.52
AIG1 (GeneID 51390)	SID160740744	-0.643	-1.56	3.04
AIG1 (GeneID 51390)	SID160740745	-0.247	1.23	4.79
AIG1 (GeneID 51390)	SID160740747	0.593	7.14	5.55
LILRB4 (GeneID 11006)	SID160729723	-0.0687	2.48	6.77
LILRB4 (GeneID 11006)	SID160729725	0.233	4.6	5.33
LILRB4 (GeneID 11006)	SID160729726	1.83	15.8	12.7
